This passage reports binding results from article doi:10.1101/2025.06.23.660276.

Results are given in words; binding and its absence hold for the method and conditions named. Some entries that bind do so weakly or less than the wild type. For some assays here: Where a sequence is shown, tags or fusion partners need not be part of it.

One assay addresses T1, TAF12-FLAG (C. albicans) (UniProt Q5ADM2).
T1 sequence: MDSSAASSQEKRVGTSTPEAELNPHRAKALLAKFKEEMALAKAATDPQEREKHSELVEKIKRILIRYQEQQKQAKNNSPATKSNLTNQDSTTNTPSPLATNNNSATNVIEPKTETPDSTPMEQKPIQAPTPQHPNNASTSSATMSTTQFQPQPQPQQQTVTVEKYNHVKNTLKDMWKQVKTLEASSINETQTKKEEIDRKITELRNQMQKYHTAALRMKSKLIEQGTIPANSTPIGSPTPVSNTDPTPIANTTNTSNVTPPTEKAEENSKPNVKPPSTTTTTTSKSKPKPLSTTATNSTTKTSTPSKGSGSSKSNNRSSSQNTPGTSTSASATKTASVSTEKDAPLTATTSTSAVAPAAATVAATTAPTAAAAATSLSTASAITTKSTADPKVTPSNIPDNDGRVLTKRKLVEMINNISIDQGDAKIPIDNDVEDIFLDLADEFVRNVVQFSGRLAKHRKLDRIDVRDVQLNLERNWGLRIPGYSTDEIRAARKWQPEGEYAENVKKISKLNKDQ
Kind of assay: RNA immunoprecipitation with RT-qPCR; anti-FLAG M2 affinity gel on polysome-containing extracts of cells treated with 1mg/ml cycloheximide (puromycin-treated extracts as control), 4h at 4°C, washes with 350mM KCl; the partner's mRNA is measured as percent input.

In assay [1] the target is 3xFLAG-tagged TAF12L (C. albicans). The assay is described as above.

B1: nascent TAF4 (protein, UniProt Q59U67 1-363)
chain: MTSTPQESSNLKRQLENSEDSSSPNKKSKTETTTENQSSWESDFNSLPVELLQTETNGTSPAPAPATPIDTTNVSNSKERDQDTSKLNDAIAAAGVDIQQEEEILLQQQLNRKSAEGMASNLKSVIRSSKSPPFLHNYHLAAFIDKVAKQNGIQQNFLMDGEMLELISAACETWLSNLATKTIILSRHRRRGIPVINKKSGSSSVPRSEISKELRSLALKQKEMEEKRVNKRVMLGLEKSTKDASKNDENGESKAGAEETLHRAANATAAMMTMNPGRKKYSWMTSSATAGGGSDFGKSSGGSSKDSGKHQSPIISVRGDNGLRFREIRSGNSIIMKDLLGAIEDEKMGTRNAVIKGYAKLKD
In the case of B1, the binding entry with TAF12-FLAG (C. albicans) is listed as “binds”.

B2: nascent ribosome-associated Ada1 (protein, UniProt Q5AEG1 1-490)
chain: MTSQIADGSSTTTINPLKNGLAALKPTHQAHGTSTTTHLTNGSPKKIKSYKRLELERLIREFQNKLGKNWEKYHETLSLFLIGKLSRAELISTITPILKGKNLLKYHNKLLLLNFANSLKDNSSDLSTEFAGFWNKKAGKVTKNKNTQFERFKSVIMGLPVKERKRIIDISRDSGKKGKIATDIILTRHAILPKIPMIQDKEQQQLQVNNLVQWQQDVLNGINTPIATENYEIPDYDNLSRMMLMIMREHGLTGGLNPGVMEVMLLGLESHLKNIVETAIDVAKYRKNKYTNDNYIPYIKPNEDAQNISNENALPSSKDITLCIEDLHDTLEMYPHLVESEGPKLRLSNVMLENDDMINDDLNYYLPPKSIEYLAKERQAATTNDASTGTTKPGNNKGSSAGGSSAGATTNSPVVNKTDSTAAVSEKTDTNQPLQTPTATQTPVQTSAQAPASAPAQTPAPVSTPILRPDAHIGTTDELKWVLHDLVSTM
As for B2, the binding result in assay [1] is “binds”.
